{"source": "patent US8901175B2", "about": "(priority 2008, dated 2014)", "test_system": "human lymphoblastic leukaemia T-cell line CEM", "assay": "Induction of apoptosis in CEM cells, flow cytometry (hypodiploid DNA)", "type": "cell-based", "settings": "1000 μg/mL cocaine, 48 h", "note": "For at least one compound, name, drawing or mass did not settle the structure."}
{"smiles": "COC(=O)[C@H]1[C@@H](OC(=O)c2ccccc2)C[C@@H]2CC[C@H]1N2C", "note": "[cocaine]", "values": [{"measurement": "induction of apoptosis", "result": "able to induce apoptosis"}]}
